# Assay results from the supplement of paper PMC8728848.
# This is one part of the list.
# Key:
# Assay in all cases: glycan array binding signal (z-score within array); higher = stronger binding
# Settings in all cases: glycan notation: IUPAC condensed, linker removed
# [1] = target: Gal(b1-4)GlcNAc(a1-6)Gal(b1-4)GlcNAc
# Summary of the method: (§1)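 The binding signal is a Z-score computed within each array. Data were drawn from 3228 arrays in the Consortium for Functional Glycomics database, restricted to those with a known protein sequence. Scores were averaged over arrays of the same protein sequence at different concentrations or buffers, and over linkers, and negative values can be taken as non-binding.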
# [2] = target: Gal(b1-4)GlcNAc(b1-2)Man(a1-3)Man(b1-4)GlcNAc(b1-4)GlcNAc
# Summary of the method: as §1
# [3] = target: Gal(b1-4)GlcNAc(b1-2)Man(a1-3)[Gal(b1-4)GlcNAc(b1-2)Man(a1-6)]Man(b1-4)GlcNAc(b1-4)GlcNAc
# Summary of the method: as §1
# [4] = target: Gal(b1-4)GlcNAc(b1-2)Man(a1-3)[Gal(b1-4)GlcNAc(b1-2)Man(a1-6)]Man(b1-4)GlcNAc(b1-4)[Fuc(a1-6)]GlcNAc
# Summary of the method: as §1
# [5] = target: Gal(b1-4)GlcNAc(b1-2)Man(a1-3)[GlcNAc(b1-2)Man(a1-6)]Man(b1-4)GlcNAc(b1-4)GlcNAc
# Summary of the method: as §1
# [6] = target: Gal(b1-4)GlcNAc(b1-2)Man(a1-3)[Man(a1-6)]Man(b1-4)GlcNAc(b1-4)GlcNAc
# Summary of the method: as §1
# [7] = target: Gal(b1-4)GlcNAc(b1-2)Man(a1-6)Man(b1-4)GlcNAc(b1-4)GlcNAc
# Summary of the method: as §1
# [8] = target: Gal(b1-4)GlcNAc(b1-2)Man(a1-6)[GlcNAc(b1-2)Man(a1-3)]Man(b1-4)GlcNAc(b1-4)GlcNAc
# Summary of the method: as §1
# [9] = target: Gal(b1-4)GlcNAc(b1-2)Man(a1-6)[Man(a1-3)]Man(b1-4)GlcNAc(b1-4)GlcNAc
# Summary of the method: as §1
# [10] = target: Gal(b1-4)GlcNAc(b1-2)[Gal(b1-4)GlcNAc(b1-4)]Man(a1-3)[Gal(b1-4)GlcNAc(b1-2)Man(a1-6)]Man(b1-4)GlcNAc(b1-4)GlcNAc
# Summary of the method: as §1
# [11] = target: Gal(b1-4)GlcNAc(b1-2)[Gal(b1-4)GlcNAc(b1-4)]Man(a1-3)[Gal(b1-4)GlcNAc(b1-2)[Gal(b1-4)GlcNAc(b1-6)]Man(a1-6)]Man(b1-4)GlcNAc(b1-4)GlcNAc
# Summary of the method: as §1
# [12] = target: Gal(b1-4)GlcNAc(b1-3)Gal(b1-3)GlcNAc
# Summary of the method: as §1
# [13] = target: Gal(b1-4)GlcNAc(b1-3)Gal(b1-4)Glc
# Summary of the method: as §1
# [14] = target: Gal(b1-4)GlcNAc(b1-3)Gal(b1-4)GlcNAc
# Summary of the method: as §1
# [15] = target: Gal(b1-4)GlcNAc(b1-3)Gal(b1-4)GlcNAc(b1-3)Gal(b1-4)GlcNAc
# Summary of the method: as §1
# [16] = target: Gal(b1-4)GlcNAc(b1-3)Gal(b1-4)[Fuc(a1-3)]GlcNAc(b1-3)Gal(b1-4)[Fuc(a1-3)]GlcNAc
# Summary of the method: as §1
# [17] = target: Gal(b1-4)GlcNAc(b1-3)GalNAc
# Summary of the method: as §1
# [18] = target: Gal(b1-4)GlcNAc(b1-3)[Gal(b1-4)GlcNAc(b1-6)]Gal(b1-4)GlcNAc
# Summary of the method: as §1
# [19] = target: Gal(b1-4)GlcNAc(b1-3)[Gal(b1-4)GlcNAc(b1-6)]GalNAc
# Summary of the method: as §1
# [20] = target: Gal(b1-4)GlcNAc(b1-3)[GlcNAc(b1-6)]Gal(b1-4)GlcNAc
# Summary of the method: as §1
# [21] = target: Gal(b1-4)GlcNAc(b1-6)Gal(b1-4)GlcNAc
# Summary of the method: as §1
# [22] = target: Gal(b1-4)GlcNAc(b1-6)GalNAc
# Summary of the method: as §1
# [23] = target: Gal(b1-4)GlcNAc(b1-6)[Gal(b1-3)]GalNAc
# Summary of the method: as §1
# [24] = target: Gal3S(b1-3)GalNAc
# Summary of the method: as §1
# [25] = target: Gal3S(b1-3)GlcNAc
# Summary of the method: as §1
# [26] = target: Gal3S(b1-3)[Fuc(a1-4)]GlcNAc
# Summary of the method: as §1
# [27] = target: Gal3S(b1-4)Glc
# Summary of the method: as §1
# [28] = target: Gal3S(b1-4)Glc6S
# Summary of the method: as §1
# [29] = target: Gal3S(b1-4)GlcNAc
# Summary of the method: as §1
# [30] = target: Gal3S(b1-4)GlcNAc6S
# Summary of the method: as §1
binder,measurement,setting,value
"MIC2 (Toxoplasma gondii), S8F9G8 (protein) MRLQREAVFGLMFACGMWMWPSEVAGGGWSIVDALRKRYDTSRGGDANGVDTSGVEDVIQSESAIGAAEGCTNQLDICFLIDSSGSIGIQNFRLVKQFLHTFLMVLPIGPEEVNNAVVTYSTDVHLQWDLQSPNAVDKQLAAHAVLDMPYKKGSTNTSDGLKACKQILFTGSRPGREHVPKLVIGMTDGESDSDFRTVRAAKEIRELGGIVTVLAVGHYVKHSECRSMCGCSGTSDDDSPCPLYLRADWGQLATAIKPMLKEVCKTLPQDAICSDWSAWSPCSVSCGDGSQIRTRTEVSAPQPGTPTCPDCPAPMGRTCVEQGGLEEIRECSAGVCAVDAGCGVWGEWSAWSASCGNATRKRERTRYNDPPPQGAGRRCENQDPPVLQEQTEEATLAPCITIPPTPPEWAAWSDCTVTCGGGNRHRVRNALPPGLGSQNGESDESLVSKLWPGTDLRQEEACNTSPCPINATCGQFEEWSTCSVSCGGGLKTRSRNPWNEDQQHGGLSCEQQHPGGRTETITCNPQACPVDERPGEWAEWGECSVTCGDGVRERRRGKSLVEAKFGGRTIDQQNEALPEDLKIKNVEYEPCSYPACGASCTYVWSDWNKCVCPMGYQARHAAVKFDYRNKPCDLPTFETKACSCGETNPVPSEGTTPGAPGATGPEQPNQRPLPEGSDENETPTNEEGEQSKKESGSGIAGAIAGGVIGGLILLGAAGGASYHYYLSSSVGSPSAEIEYEADDGATKVVMEEEKETLVPVDDDSDMWME",glycan array binding signal (z-score),[1],-0.72
same,glycan array binding signal (z-score),[2],-0.709
same,glycan array binding signal (z-score),[3],0.515
same,glycan array binding signal (z-score),[4],1.15
same,glycan array binding signal (z-score),[5],-0.592
same,glycan array binding signal (z-score),[6],-0.176
same,glycan array binding signal (z-score),[7],0.352
same,glycan array binding signal (z-score),[8],-0.816
same,glycan array binding signal (z-score),[9],0.017
same,glycan array binding signal (z-score),[10],-0.051
same,glycan array binding signal (z-score),[11],-0.849
same,glycan array binding signal (z-score),[12],-0.848
same,glycan array binding signal (z-score),[13],0.224
same,glycan array binding signal (z-score),[14],0.542
same,glycan array binding signal (z-score),[15],-0.169
same,glycan array binding signal (z-score),[16],-0.501
same,glycan array binding signal (z-score),[17],-0.345
same,glycan array binding signal (z-score),[18],-0.785
same,glycan array binding signal (z-score),[19],-0.129
same,glycan array binding signal (z-score),[20],-0.941
same,glycan array binding signal (z-score),[21],0.294
same,glycan array binding signal (z-score),[22],-0.624
same,glycan array binding signal (z-score),[23],0.853
same,glycan array binding signal (z-score),[24],-0.688
same,glycan array binding signal (z-score),[25],-0.484
same,glycan array binding signal (z-score),[26],-0.555
same,glycan array binding signal (z-score),[27],0.547
same,glycan array binding signal (z-score),[28],0.756
same,glycan array binding signal (z-score),[29],1.89
same,glycan array binding signal (z-score),[30],2.66

# Fetched one by one from the entries so far, two records:
binder,measurement,setting,value
"MIC2 (Toxoplasma gondii), S8F9G8 (protein) MRLQREAVFGLMFACGMWMWPSEVAGGGWSIVDALRKRYDTSRGGDANGVDTSGVEDVIQSESAIGAAEGCTNQLDICFLIDSSGSIGIQNFRLVKQFLHTFLMVLPIGPEEVNNAVVTYSTDVHLQWDLQSPNAVDKQLAAHAVLDMPYKKGSTNTSDGLKACKQILFTGSRPGREHVPKLVIGMTDGESDSDFRTVRAAKEIRELGGIVTVLAVGHYVKHSECRSMCGCSGTSDDDSPCPLYLRADWGQLATAIKPMLKEVCKTLPQDAICSDWSAWSPCSVSCGDGSQIRTRTEVSAPQPGTPTCPDCPAPMGRTCVEQGGLEEIRECSAGVCAVDAGCGVWGEWSAWSASCGNATRKRERTRYNDPPPQGAGRRCENQDPPVLQEQTEEATLAPCITIPPTPPEWAAWSDCTVTCGGGNRHRVRNALPPGLGSQNGESDESLVSKLWPGTDLRQEEACNTSPCPINATCGQFEEWSTCSVSCGGGLKTRSRNPWNEDQQHGGLSCEQQHPGGRTETITCNPQACPVDERPGEWAEWGECSVTCGDGVRERRRGKSLVEAKFGGRTIDQQNEALPEDLKIKNVEYEPCSYPACGASCTYVWSDWNKCVCPMGYQARHAAVKFDYRNKPCDLPTFETKACSCGETNPVPSEGTTPGAPGATGPEQPNQRPLPEGSDENETPTNEEGEQSKKESGSGIAGAIAGGVIGGLILLGAAGGASYHYYLSSSVGSPSAEIEYEADDGATKVVMEEEKETLVPVDDDSDMWME",glycan array binding signal (z-score),[14],0.542
same,glycan array binding signal (z-score),[30],2.66
